Assay results as given in the supplement of paper PMC5949888.
Most values lie at the floor of the assay. Slopes are relative: functional sequences can read slightly below zero.

test system: Saccharomyces cerevisiae PS128 hsf1 delta, HSF1(1-493) fusion; assay: growth estimate (transactivation domain function in HSF1 fusion, heat-shock survival) (a.u. (slope of normalised read count over time)); higher = stronger growth at 37°C, i.e. more transactivation activity; details: library: random library

Substance | growth estimate
RVICGGALNLRATAADFQGG | < -0.25
AYHVHTCLAFGWHVCFTASK | < -0.25
QSISVHFQIW | < -0.25
EALGLQRLKYTRKRLAPSIA | < -0.25
YHVRRE | < -0.25
NPTQTIYVLDWRMQQTLDAT | -0.228
RLLGRPGSCPFLKP | < -0.25
QSGW | < -0.25
APGPSQQALI | < -0.25
LQLISCHSQRSKSCVCGQHP | < -0.25
ALRR | < -0.25
VSDKFLILAMG | < -0.25
LWEAINRPEEPVESLGLCLV | < -0.25
RPGISTRVSNSWLRPLISEV | < -0.25
HGLLTSHTCMLFPVITFAWS | -0.0311
HVIY | < -0.25
SAGAA | < -0.25
PSGGQDYGQQISISRTGYLG | < -0.25
FFTRCPG | < -0.25
DEPGRSRYRTGGMKGGAQAK | < -0.25
QRAGSAGEGPVVELGHSFDL | < -0.25
GRKLWEVPFDVKDDLRLGNP | < -0.25
KRGDSRSS | < -0.25
VCQR | < -0.25
FPQLT | < -0.25
PLFWLQPR | < -0.25

Substance | growth estimate
RARRPHVQDSPKDVRGGSPT | < -0.25
SWNSVSL | < -0.25
RFLCLDSVHLLRVNTEGVTR | < -0.25
TDLVAVIRITWLERRVWDSR | < -0.25
GGLCAEYCHSLY | 1.98
HARAP | < -0.25
GCRVRRVWLFVPVCCSTGRE | < -0.25
RSGKSGGFSTAE | < -0.25
DRWYAPLKIQKVDACSALSF | < -0.25
TFLGGAAHKAGKRIVE | < -0.25
IGWTFTGTVRRLAQTPIHSD | < -0.25
LILLSVQPR | < -0.25
QFVRPNCLQRL | < -0.25
LGAW | < -0.25
EGYCVKSSVGSKIIIDPSGT | < -0.25
NVQTAPPVQQ | < -0.25
KKAKKCGTTVSHLLCYRCSV | < -0.25
FRIAVARLAAQEGHYFAKFH | < -0.25
VGHDRSSCGNAIAEVVCFSP | < -0.25
TTKSR | < -0.25
RGYFFEYSWGSRHVEEPRRV | < -0.25
TAQLFPASCGWRV | < -0.25
RAYLFPATEVTRLRHLLSSR | < -0.25
FGTKPSHTE | < -0.25
IKDGCHKL | < -0.25
CCLASGV | < -0.25

Substance | growth estimate
YRL | < -0.25
QQRIITIG | < -0.25
CYGRICESFAPAPIIASGTS | < -0.25
RKPESHLRFQNNGSRFMGYE | < -0.25
WRPQSMVVDMI | < -0.25
EWDQQNPMELKGWPVDTRPR | < -0.25
YLQAWTITLCDPIYRDLIRD | < -0.25
KDFLGMGPRFARSRVVASVP | < -0.25
CRTHKGKRV | < -0.25
GTAGGPVLVTTIRPSRLGYV | < -0.25
EWDATISRRGSKGDSSASTC | < -0.25
SYIVSTGHKCASNSFTADEH | < -0.25
GLEVREERRSVEQRPWRMGK | < -0.25
SWGYLAEISGYS | < -0.25
VWPCHAGNGCRENCRSGALT | < -0.25
QRGCRQYVQV | < -0.25
AVWRGSYVCR | < -0.25
DLGQAEEMARSTTLLGNSFQ | -0.121
LTTGVTLILSIAGTSNAEPC | < -0.25
TCHFDIDNGYAWYVLQSSPG | < -0.25
TITVNR | < -0.25
ERTPET | < -0.25
FPGCVVTSYESYTPKKLGQE | < -0.25
KSQPGVSAHIITQRRAETS | < -0.25
LSGSYSSVPCLQVVDGKLLV | < -0.25
CFG | < -0.25

6 records picked at random from those above:
Substance | growth estimate
CRTHKGKRV | < -0.25
CYGRICESFAPAPIIASGTS | < -0.25
FFTRCPG | < -0.25
RVICGGALNLRATAADFQGG | < -0.25
RGYFFEYSWGSRHVEEPRRV | < -0.25
ALRR | < -0.25

As a working copy, some entries already given.
Substance | growth estimate
SYIVSTGHKCASNSFTADEH | < -0.25
GLEVREERRSVEQRPWRMGK | < -0.25
SWGYLAEISGYS | < -0.25
VWPCHAGNGCRENCRSGALT | < -0.25
QRGCRQYVQV | < -0.25
AVWRGSYVCR | < -0.25

(listing goes on)

Substance | growth estimate
WWF | -0.179
FLKGCLPFVHTRGRIRISAS | < -0.25
VLYFSAM | < -0.25
GQPRF | < -0.25
WTGWDSVHSVPLVRRRWAWK | < -0.25
EQRGV | < -0.25
AEALAIAPAAACLNGGANRR | < -0.25
VPRSRD | < -0.25
DAPSSRYI | < -0.25
IFVLPTDVCRICEFAHYDCL | < -0.25
RNDQA | < -0.25
GRHIALVRISLSVGVAVSSA | < -0.25
ETGDRFRHCTE | < -0.25
QEGFSRRFGWDAALKLVEYM | < -0.25
GLIVRRWTVSVVTHPWLLVG | < -0.25
GEIYDPTG | < -0.25
TFSEATMPRVSTRQAREGGR | < -0.25
VKVEYTS | < -0.25
RYSYEPEQPVEREGGSPCTI | < -0.25
SVSILDNLDPAR | < -0.25
HRTVGAVEQIVLALNPH | < -0.25
SGRFRQYD | < -0.25
TGFLVALYH | < -0.25
QFRQRLRQCTTAACRIG | < -0.25
QHTWKRYYHYNPCEMRDCVS | < -0.25
RDHYFMRFLSSLPIRLKGRS | < -0.25

Substance | growth estimate
GISEQLIGKTPANPRGRCRL | < -0.25
TVRGLQAQKRQYAMLNICTG | < -0.25
PVGLRTGLRILYSPAWQPAN | < -0.25
EVSPVVVH | < -0.25
CVVFGQTPVDRMYINAQEVL | < -0.25
ASS | < -0.25
VVSQDALHRTNPIKDAYLVR | < -0.25
LIH | < -0.25
TMFWK | < -0.25
LISNYQAMSSRDSVWNDRVP | < -0.25
DCAWLALPSRRHWPCRKFVR | < -0.25
QQGNTASRRSVSIEH | < -0.25
LLWWGRDRSAPITRCRLSCH | -0.242
HRGVHGVIWFHPRIGWRGTS | < -0.25
CVSL | < -0.25
RMAKRARRL | < -0.25
GSASKWQVYPKAIASLLGRI | < -0.25
VVLSVSILWER | < -0.25
TLSNNAPKCPDPMASQGCAG | < -0.25
ARKEG | < -0.25
REGLLDPDDARDKPPRGPVT | < -0.25
SAGFPV | < -0.25
SGNR | < -0.25
TGMNKD | < -0.25
SARMGRALDM | -0.248
TRRAIFVELALGCSYSPR | < -0.25

Substance | growth estimate
ALNIQPAGSYETVILENSSS | < -0.25
TGTINIFGAAGHNIGRALTA | < -0.25
LCVSDIQMGDSPELEA | < -0.25
AWGEWV | -0.25
FTMEYLGIAADLTVGHRK | < -0.25
NPLCILLITHWPHGYVVTGL | < -0.25
GRSLRKG | < -0.25
MSGRAILCIQIGNMRVSIVI | < -0.25
GATRPSFSLAHANLFSESSS | < -0.25
IQGQRLVIE | < -0.25
CSMGKGYVPGDKVSSYLQ | < -0.25
LVKELLQVNRGDRALQLLKA | < -0.25
THPKSLLRALNLGNGGERCP | < -0.25
HTSLEKRTYRSVT | < -0.25
ESNLFTWIIRYSLKGKIPPF | < -0.25
SPERASPRLVWALPHDGDWR | < -0.25
VSSSRSHSLKAQSVFF | < -0.25
GHELVQSGMQPSAARGHRLS | < -0.25
LVPTHPGTVRATPYWLVHRN | < -0.25
GRSQLMRSGGAREST | < -0.25
QPWSLSGSERRFAPAARTRV | < -0.25
VLPRVTVAIDTE | < -0.25
PSIPG | < -0.25
TNIRMALGARQE | < -0.25
KSA | < -0.25
KVQGSRINVGLS | < -0.25

Substance | growth estimate
LYIDDQRRGVLREM | < -0.25
FLYDSEITNGTCMYRWV | < -0.25
RRFKPEVSFLGCNGTV | -0.185
ITSPDQWDTTALA | < -0.25
IGSGSRDRKLCLCG | < -0.25
FPQWVVESGL | < -0.25
KCLGLMLRSPVGLEYTSMLG | -0.243
PGPHCRNQGFPKSLR | < -0.25
YHVPTVNTSECGFVR | < -0.25
PGLRPAETARVGPTQGLNGP | < -0.25
QLRLGLVDFLNTLDL | < -0.25
GDCVGPS | < -0.25
DSKLATWLVAPPALAHVYTA | < -0.25
NSGPGGWTALT | < -0.25
ALVITIEPGRAGARK | < -0.25
RCHLFCFARFYVELPLFLDL | < -0.25
RIEGPGGLKVGEPLMWFGPP | < -0.25
GLN | < -0.25
DINLPYRPVKTVFVVGPVRG | < -0.25
VKALLQNGGGC | < -0.25
RNAVVRSNFRSARGRS | < -0.25
LEKE | < -0.25
TRGP | < -0.25
TSRIAREPRCGS | < -0.25
HPRIDFEHRDIPRLRRNPRL | < -0.25
SYVHSKGTRRRS | < -0.25

Substance | growth estimate
YTGGVVKGRLFYGMKIG | -0.235
SKVML | < -0.25
HCTRVRIGAVFQSTRGKYWK | < -0.25
RLQSQADVAGIAGNHILD | < -0.25
RFPQSSCRT | < -0.25
VLS | < -0.25
SLGYR | < -0.25
LVTCGDMLCVQVQ | < -0.25
GCTSRGVARIFTVRG | < -0.25
QTQGLKAGYTEYSRRGLQTL | < -0.25
WISDTVKSVAPPPLKMMVCH | -0.246
WTWPSAAL | < -0.25
YECVPSKWEGVVRPSRVVLA | < -0.25
IYRRRPLRP | < -0.25
LCESGAGYNDEP | < -0.25
SYWQ | < -0.25
KKDRASGSFPVCRPRWPGTS | < -0.25
SAGVQGTTDE | < -0.25
AILNRCRVWWLLRGQMSSFS | < -0.25
RLP | < -0.25
